This is an account of results in publication PMC9949265.

By UniProt entry, the sequences of proteins in these tests, tags left out. Residues count along the entry.
UniProt Q8NI17, residues 20-732: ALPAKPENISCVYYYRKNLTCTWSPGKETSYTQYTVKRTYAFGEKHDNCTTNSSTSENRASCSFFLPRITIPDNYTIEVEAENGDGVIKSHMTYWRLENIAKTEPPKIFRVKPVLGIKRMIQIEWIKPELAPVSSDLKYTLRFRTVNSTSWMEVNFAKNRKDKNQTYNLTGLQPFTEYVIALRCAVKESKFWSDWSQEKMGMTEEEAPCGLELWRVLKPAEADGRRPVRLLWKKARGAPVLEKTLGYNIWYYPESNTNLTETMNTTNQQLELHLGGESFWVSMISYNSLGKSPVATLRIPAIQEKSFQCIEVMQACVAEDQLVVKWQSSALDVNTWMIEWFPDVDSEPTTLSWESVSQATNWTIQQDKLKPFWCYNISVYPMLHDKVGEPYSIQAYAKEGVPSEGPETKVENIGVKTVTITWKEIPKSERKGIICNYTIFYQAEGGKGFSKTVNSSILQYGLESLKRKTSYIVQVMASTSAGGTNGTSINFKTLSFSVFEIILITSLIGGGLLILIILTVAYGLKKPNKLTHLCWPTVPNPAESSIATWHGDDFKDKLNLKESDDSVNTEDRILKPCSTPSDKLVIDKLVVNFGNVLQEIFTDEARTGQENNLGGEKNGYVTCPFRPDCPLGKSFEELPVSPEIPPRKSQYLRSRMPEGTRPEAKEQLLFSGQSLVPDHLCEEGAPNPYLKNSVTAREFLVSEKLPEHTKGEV
UniProt P20309: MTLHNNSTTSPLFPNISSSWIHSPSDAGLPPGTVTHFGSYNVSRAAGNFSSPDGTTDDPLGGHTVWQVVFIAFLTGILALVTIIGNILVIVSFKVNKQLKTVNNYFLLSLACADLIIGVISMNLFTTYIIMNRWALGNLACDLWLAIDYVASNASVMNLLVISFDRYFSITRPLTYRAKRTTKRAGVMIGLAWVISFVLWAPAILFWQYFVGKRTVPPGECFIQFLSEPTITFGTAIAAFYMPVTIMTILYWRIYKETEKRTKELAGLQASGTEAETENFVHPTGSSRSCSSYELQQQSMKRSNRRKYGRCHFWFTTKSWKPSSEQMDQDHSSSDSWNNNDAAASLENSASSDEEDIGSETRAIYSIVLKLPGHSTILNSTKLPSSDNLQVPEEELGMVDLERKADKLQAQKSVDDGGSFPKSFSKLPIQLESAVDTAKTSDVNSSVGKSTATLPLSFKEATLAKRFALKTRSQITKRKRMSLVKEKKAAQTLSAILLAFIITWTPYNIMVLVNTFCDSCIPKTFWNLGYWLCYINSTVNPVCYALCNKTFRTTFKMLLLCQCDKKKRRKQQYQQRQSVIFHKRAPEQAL

The target of assay [1] is Interleukin 31 receptor alpha (IL-31RA), C-terminal FLAG-tagged, overexpressed (UniProt Q8NI17). In words: co-IP; HEK293T transfected with IL-31RA plasmid or empty control plasmid for 72 h; RIPA lysate; agarose A/G beads with anti-FLAG or control IgG; washed three times with PBS; low pH glycine elution; blotted with anti-Flag, anti-IL31RA and anti-CHRM3.
The target is the same in assay [2]. Nature of the assay: proximity ligation; in situ Duolink PLA in HEK293T cells co-transfected with IL-31RA and CHRM3 plasmids or empty control plasmids for 48 h; methanol-fixed; primary antibodies to IL-31RA (goat) and CHRM3 (rabbit); confocal microscopy.

Results are given in words; binding and its absence hold for the method and conditions named. Binding seen in cells or lysates may run through a third protein. Some results given as binding are weak or reduced against the parent protein; the word gives no strength.

“Endogenous muscarinic acetylcholine receptor 3 (CHRM3) of HEK293T cells (from UniProt P20309 1-590)”: the binding result in assay [1] is “binds”.

Turning to “Muscarinic acetylcholine receptor 3 (CHRM3), overexpressed (from UniProt P20309 1-590)”, the binding result in assay [2] is given as “binds”.
